Assay results as given in publication PMC9882653.
These are yes or no findings as the source states them, for the method shown. Binding seen in cells or lysates may run through a third protein. Some binding calls cover weakened binding; strength is not graded here.

Protein sequences, listed by entry. Tags and fused reporters are not part of them.
UniProt Q9QUR7: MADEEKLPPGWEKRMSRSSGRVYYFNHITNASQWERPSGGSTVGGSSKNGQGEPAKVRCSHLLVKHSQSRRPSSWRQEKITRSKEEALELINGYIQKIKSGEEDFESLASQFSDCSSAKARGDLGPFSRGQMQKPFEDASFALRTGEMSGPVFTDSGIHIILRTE
UniProt Q9R1K5: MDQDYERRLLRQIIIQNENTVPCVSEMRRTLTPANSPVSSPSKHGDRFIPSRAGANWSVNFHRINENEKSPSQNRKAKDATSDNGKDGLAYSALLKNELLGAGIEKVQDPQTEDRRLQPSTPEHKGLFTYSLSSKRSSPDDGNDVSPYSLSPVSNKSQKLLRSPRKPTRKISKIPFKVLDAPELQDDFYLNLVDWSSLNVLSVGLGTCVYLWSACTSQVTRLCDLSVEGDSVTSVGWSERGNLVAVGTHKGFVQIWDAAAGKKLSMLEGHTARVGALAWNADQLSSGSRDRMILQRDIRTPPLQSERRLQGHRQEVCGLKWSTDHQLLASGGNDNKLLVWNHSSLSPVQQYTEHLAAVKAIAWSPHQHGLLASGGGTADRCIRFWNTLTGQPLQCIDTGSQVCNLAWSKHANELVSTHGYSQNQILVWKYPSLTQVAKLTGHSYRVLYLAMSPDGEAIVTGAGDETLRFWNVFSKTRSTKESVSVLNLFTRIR
UniProt Q9UM11: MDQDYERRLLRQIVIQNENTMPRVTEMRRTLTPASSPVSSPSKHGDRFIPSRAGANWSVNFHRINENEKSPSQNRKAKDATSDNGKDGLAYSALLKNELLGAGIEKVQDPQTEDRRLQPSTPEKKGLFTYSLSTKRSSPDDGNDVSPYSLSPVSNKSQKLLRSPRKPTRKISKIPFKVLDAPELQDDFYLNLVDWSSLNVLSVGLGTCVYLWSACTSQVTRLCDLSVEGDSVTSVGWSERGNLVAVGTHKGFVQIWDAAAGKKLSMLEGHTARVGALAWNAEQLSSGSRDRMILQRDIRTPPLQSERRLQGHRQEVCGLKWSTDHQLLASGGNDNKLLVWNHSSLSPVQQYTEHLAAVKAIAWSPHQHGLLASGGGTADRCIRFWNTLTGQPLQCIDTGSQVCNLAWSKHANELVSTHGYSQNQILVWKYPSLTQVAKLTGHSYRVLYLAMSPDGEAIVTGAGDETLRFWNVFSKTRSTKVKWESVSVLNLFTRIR

What was measured:
[1] = molecular target: Pin1 (mouse tumors) (mouse (endogenous in K14cre; p53wt/f; Brca1wt/f tumors)) (UniProt Q9QUR7); experiment: co-IP; K14cre; p53wt/f; Brca1wt/f mouse tumors, pulled down by anti-Pin1 or anti-Cdk4 antibody
[2] = molecular target: T1, Cdk4 (mouse tumors) (mouse (endogenous in K14cre; p53wt/f; Brca1wt/f tumors)) (UniProt P30285); experiment: as above
T1 sequence: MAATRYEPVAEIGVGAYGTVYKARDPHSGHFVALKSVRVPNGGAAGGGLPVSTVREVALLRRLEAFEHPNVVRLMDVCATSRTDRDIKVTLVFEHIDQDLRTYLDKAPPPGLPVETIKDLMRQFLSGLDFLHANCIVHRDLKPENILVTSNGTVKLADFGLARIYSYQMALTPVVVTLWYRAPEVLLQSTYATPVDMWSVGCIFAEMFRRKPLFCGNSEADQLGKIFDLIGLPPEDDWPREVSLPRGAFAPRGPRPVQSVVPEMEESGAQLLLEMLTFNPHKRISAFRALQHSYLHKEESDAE

[3] = molecular target: endogenous CDK4 (human (endogenous in MDA-MB-231 and MCF-7)) (UniProt P11802); experiment: co-IP; endogenous proteins; MDA-MB-231 and MCF-7 cells treated with 1 uM Palbociclib for 24 hrs, precipitated with IgG or anti-CDK4 antibodies

## Cdh1 (mouse tumors) (from UniProt Q9R1K5 1-493)
[1]
  binding: binds
[2]
  binding: binds

## endogenous CDH1 (from UniProt Q9UM11 1-496)
[3]
  binding: binds
